The supplement of paper PMC4604168 (melanoma cell lines)
Some of the results follow. Single values are uncertain, as repeats are few or missing.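 Imaging used 1,536-well plates; nuclei positive for cleaved PARP by antibody were divided by total DNA-stained nuclei to yield the apoptosis fraction. Doses for screening kept most cells viable, and cell lines differ markedly in resting and induced cleaved-PARP levels.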

Assays:
Assay in all cases: cleaved PARP positive nuclei fraction relative to DMSO control; melanoma cells; higher = more apoptosis
Conditions in all cases: library dose: low library concentration; 72 h
501Mel = tested on: 501Mel
A101D = tested on: A101D
A2058 = tested on: A2058
C32 = tested on: C32
CBRC008 = tested on: CBRC008 (line from a melanoma biopsy)
CBRC014 = tested on: CBRC014 (line from a melanoma biopsy)
CBRC016 = tested on: CBRC016 (line from a melanoma biopsy)
CBRC017 = tested on: CBRC017 (line from a melanoma biopsy)
COLO792 = tested on: COLO792
COLO800 = tested on: COLO800
COLO829 = tested on: COLO829
G361 = tested on: G361
IPC-298 = tested on: IPC-298
IST-MEL1 = tested on: IST-MEL1
LB2518-MEL = tested on: LB2518-MEL
LOXIMVI = tested on: LOXIMVI
A375 = tested on: A375
CBRC013 = tested on: CBRC013 (line from a melanoma biopsy)
MEL-HO = tested on: MEL-HO

| Compound | cleaved PARP positive nuclei fraction (501Mel) [%] | cleaved PARP positive nuclei fraction (A101D) [%] | cleaved PARP positive nuclei fraction (A2058) [%] | cleaved PARP positive nuclei fraction (C32) [%] | cleaved PARP positive nuclei fraction (CBRC008) [%] | cleaved PARP positive nuclei fraction (CBRC014) [%] | cleaved PARP positive nuclei fraction (CBRC016) [%] | cleaved PARP positive nuclei fraction (CBRC017) [%] | cleaved PARP positive nuclei fraction (COLO792) [%] | cleaved PARP positive nuclei fraction (COLO800) [%] | cleaved PARP positive nuclei fraction (COLO829) [%] | cleaved PARP positive nuclei fraction (G361) [%] | cleaved PARP positive nuclei fraction (IPC-298) [%] | cleaved PARP positive nuclei fraction (IST-MEL1) [%] | cleaved PARP positive nuclei fraction (LB2518-MEL) [%] | cleaved PARP positive nuclei fraction (LOXIMVI) [%] | cleaved PARP positive nuclei fraction (A375) [%] | cleaved PARP positive nuclei fraction (CBRC013) [%] | cleaved PARP positive nuclei fraction (MEL-HO) [%] |
| --- | --- | --- | --- | --- | --- | --- | --- | --- | --- | --- | --- | --- | --- | --- | --- | --- | --- | --- | --- |
| O=C(O)c1ccc2c(c1)nc(Nc1cccc(Cl)c1)c1ccncc12 + CCCCCCCCCCCC1=C(O)C(=O)C=C(O)C1=O [Embelin] (first compound 0.4 µM, partner dose 1.2 µM) | 61.2 | 35.8 | 50.9 | 189 | 51.2 | 253 | 139 | 135 | 189 | 15.7 | 124 | 169 | 101 | 85.9 | 208 | 126 | – | – | – |
| CCCS(=O)(=O)Nc1ccc(F)c(C(=O)c2c[nH]c3ncc(Cl)cc23)c1F + Cc1cc(N2CCOCC2)cc2[nH]c(-c3c(NC[C@@H](O)c4cccc(Cl)c4)cc[nH]c3=O)nc12 [BMS536924] (first compound 0.08 µM, partner dose 0.2 µM) | – | 210 | 142 | 450 | 242 | 94.2 | 99.6 | 128 | 81.5 | 44.3 | 138 | 91.9 | 101 | 25.4 | – | 73.8 | 63.5 | 67.4 | 62.9 |
| O=C(O)[C@@H]1[O][Sb](=[O])([O][Sb]2(=[O])[O][C@H]([C@H](O)CO)[C@H](O)[C@H](C(=O)O)[O]2)[O][C@H]([C@H](O)CO)[C@@H]1O (stereo partly specified) [stibogluconate] + O=C1NC(=O)/C(=C/c2ccc(-c3ccc(F)cc3O)o2)S1 [AS252424] (first compound 2 µM, partner dose 1 µM) | 34.9 | 26.6 | 87 | 86.5 | 178 | 97 | 33.9 | 107 | 75.8 | 151 | 174 | 155 | 192 | 90.8 | 134 | 107 | – | – | – |
| C[C@@H](Oc1cc(-c2cnn(C3CCNCC3)c2)cnc1N)c1c(Cl)ccc(F)c1Cl [Crizotinib] + CCc1ccc(CCOc2ccc(CC3SC(=O)NC3=O)cc2)nc1 [pioglitazone] (first compound 0.2 µM, partner dose 2 µM) | 140 | 22 | 204 | 84.6 | 76.9 | 93.9 | 87.1 | 197 | 71 | 117 | 43.2 | 147 | 182 | 70.2 | 72 | 63.5 | – | – | – |
| CN1CCN(c2ccc3nc(-c4c(N)c5c(F)cccc5[nH]c4=O)[nH]c3c2)CC1 [Dovitinib] + COc1cc(N2CCC(N3CCN(C)CC3)CC2)ccc1Nc1ncc(Cl)c(Nc2ccccc2S(=O)(=O)C(C)C)n1 [NVP-TAE684] (first compound 0.1 µM, partner dose 0.08 µM) | 81.3 | 53.2 | 95.7 | 79 | 137 | 92.5 | 35.2 | 95.2 | 71.9 | 91.9 | 94.4 | 192 | 47.7 | 254 | 161 | 83.3 | – | – | – |
| CO[C@H]1C[C@@H]2CC[C@@H](C)[C@@](O)(O2)C(=O)C(=O)N2CCCC[C@H]2C(=O)O[C@H]([C@H](C)C[C@@H]2CC[C@@H](OCCO)[C@H](OC)C2)CC(=O)[C@H](C)/C=C(\C)[C@@H](O)[C@@H](OC)C(=O)[C@H](C)C[C@H](C)/C=C/C=C/C=C/1C [everolimus] + OCCn1cc(-c2cnc3nnn(Cc4ccc5ncccc5c4)c3n2)cn1 [PF04217903] (first compound 0.02 µM, partner dose 1 µM) | – | 56.2 | 66 | 26.8 | 387 | 74.1 | 110 | 91.5 | 233 | 77.3 | 189 | 235 | 120 | 191 | – | 52.1 | 508 | 65.7 | 75.9 |
| C=C(c1ccc(C(=O)O)cc1)c1cc2c(cc1C)C(C)(C)CCC2(C)C [Bexarotene] + COC(=O)c1sccc1S(=O)(=O)Nc1ccc(Nc2ccccc2)cc1OC [GSK0660] (first compound 2 µM, partner dose 1 µM) | 80.8 | 19.6 | 111 | 110 | 126 | 152 | 140 | 236 | 87.5 | 20.2 | 96.5 | 184 | 121 | 134 | 69.1 | 71.7 | – | – | – |
| Cc1cc(Nc2cc(N3CCN(C)CC3)nc(/C=C/c3ccccc3)n2)n[nH]1 + c1cc(-c2cnn3cc(-c4ccc(OCCN5CCCCC5)cc4)cnc23)ccn1 [Dorsomorphin] (first compound 0.04 µM, partner dose 0.4 µM) | 85.4 | 22.7 | 70.9 | 94.3 | 148 | 94 | 71.4 | 51.7 | 161 | 44.9 | 65.2 | 103 | 218 | 69.8 | 70 | 98.9 | – | – | – |
| C[C@@H](Oc1cc(-c2cnn(C3CCNCC3)c2)cnc1N)c1c(Cl)ccc(F)c1Cl [Crizotinib] + COc1cc(Nc2ncc(F)c(Nc3ccc4c(n3)NC(=O)C(C)(C)O4)n2)cc(OC)c1OC [Tamatinib] (first compound 0.2 µM, partner dose 0.4 µM) | – | 105 | 109 | 192 | 216 | 82.7 | 39 | 120 | 108 | 64.4 | 91.7 | 106 | 126 | 233 | – | 86.1 | 205 | 125 | 141 |
| CS(=O)(=O)CCNCc1ccc(-c2ccc3ncnc(Nc4ccc(OCc5cccc(F)c5)c(Cl)c4)c3c2)o1 [lapatinib] + COC(=O)c1sccc1S(=O)(=O)Nc1ccc(Nc2ccccc2)cc1OC [GSK0660] (first compound 0.8 µM, partner dose 1 µM) | 67.8 | 30.6 | 57.4 | 100 | 158 | 118 | 44.3 | 181 | 192 | 36.8 | 47.3 | 25 | 61.4 | 126 | 69.3 | 114 | – | – | – |
| CC(C)C[C@H](NC(=O)[C@H](Cc1ccccc1)NC(=O)c1cnccn1)B(O)O [Bortezomib] + CC1(C)NC(=O)N(c2ccc([N+](=O)[O-])c(C(F)(F)F)c2)C1=O [nilutamide] (first compound 0.001 µM, partner dose 1 µM) | – | 551 | 42 | 127 | 2270 | 251 | 153 | 324 | 49.3 | 110 | 164 | 897 | 54.3 | 56.7 | – | 131 | 59.9 | 118 | 127 |
| Nc1ncn([C@H]2C[C@H](O)[C@@H](CO)O2)c(=O)n1 [decitabine] + CCc1ccc(CCOc2ccc(CC3SC(=O)NC3=O)cc2)nc1 [pioglitazone] (first compound 0.1 µM, partner dose 2 µM) | 72.6 | 65.2 | 123 | 43.7 | 66.9 | 115 | 1130 | 75.7 | 47.1 | 62.2 | 163 | 164 | 159 | 161 | 84.2 | 66.2 | – | – | – |
| CN1CCN(c2ccc3nc(-c4c(N)c5c(F)cccc5[nH]c4=O)[nH]c3c2)CC1 [Dovitinib] + N#Cc1c(O)c2c(-c3ccc(-c4ccccc4O)cc3)csc2[nH]c1=O [A769662] (first compound 0.1 µM, partner dose 2 µM) | 85.3 | 33.8 | 50.3 | 78.9 | 96.6 | 84.9 | 80.1 | 121 | 81.7 | 67.7 | 54.1 | 96.3 | 182 | 119 | 70.8 | 60 | – | – | – |
| Cc1cc(Nc2cc(N3CCN(C)CC3)nc(/C=C/c3ccccc3)n2)n[nH]1 + NCC(=O)Nc1ccc(-n2nc(C(F)(F)F)cc2-c2ccc3c(ccc4ccccc43)c2)cc1 [OSU03012] (first compound 0.04 µM, partner dose 1 µM) | – | 79 | 67.1 | 89.6 | 106 | 253 | 219 | 96.3 | 144 | 102 | 146 | 87.8 | 302 | 152 | – | 197 | 1140 | 170 | 70.2 |
| CS(=O)(=O)CCNCc1ccc(-c2ccc3ncnc(Nc4ccc(OCc5cccc(F)c5)c(Cl)c4)c3c2)o1 [lapatinib] + COc1cc(Nc2ncc(F)c(Nc3ccc4c(n3)NC(=O)C(C)(C)O4)n2)cc(OC)c1OC [Tamatinib] (first compound 0.8 µM, partner dose 0.4 µM) | – | 55.1 | 66.1 | 95 | 195 | 86.8 | 98.7 | 115 | 209 | 41.1 | 148 | 176 | 116 | 84 | – | 52.9 | 116 | 70.9 | 102 |
| C[C@@H](Oc1cc(-c2cnn(C3CCNCC3)c2)cnc1N)c1c(Cl)ccc(F)c1Cl [Crizotinib] + O=C(Nc1cccc(Cl)c1)Nc1ncc(CCNc2ncnc3ccsc23)s1 [SNS314] (first compound 0.2 µM, partner dose 0.0008 µM) | – | 74.1 | 140 | 133 | 160 | 84.1 | 66.3 | 111 | 63.1 | 210 | 98.8 | 117 | 281 | 53.4 | – | 66.5 | 198 | 118 | 131 |
| CCCS(=O)(=O)Nc1ccc(F)c(C(=O)c2c[nH]c3ncc(Cl)cc23)c1F + NC(=O)Nc1cc(-c2cccc(F)c2)sc1C(=O)N[C@H]1CCCNC1 [AZD7762] (first compound 0.08 µM, partner dose 0.02 µM) | – | 93.8 | 72.2 | 168 | 24.2 | 105 | 118 | 91.6 | 156 | 152 | 49.4 | 91.1 | 120 | 163 | – | 74.3 | 879 | 127 | 168 |
| CNC(=O)c1cc(Oc2ccc(NC(=O)Nc3ccc(Cl)c(C(F)(F)F)c3)cc2)ccn1 [sorafenib] + O=c1cc(-c2cccc3c2Sc2ccccc2S3)oc(N2CCOCC2)c1 [KU55933] (first compound 0.4 µM, partner dose 1 µM) | 89.4 | 46.3 | 23.6 | 159 | 345 | 98.1 | 41.8 | 103 | 136 | 38.7 | 29.3 | 117 | 196 | 67.3 | 173 | 173 | – | – | – |

4 entries from above, in CSV form:
Compound,cleaved PARP positive nuclei fraction (501Mel) [%],cleaved PARP positive nuclei fraction (A101D) [%],cleaved PARP positive nuclei fraction (A2058) [%],cleaved PARP positive nuclei fraction (C32) [%],cleaved PARP positive nuclei fraction (CBRC008) [%],cleaved PARP positive nuclei fraction (CBRC014) [%],cleaved PARP positive nuclei fraction (CBRC016) [%],cleaved PARP positive nuclei fraction (CBRC017) [%],cleaved PARP positive nuclei fraction (COLO792) [%],cleaved PARP positive nuclei fraction (COLO800) [%],cleaved PARP positive nuclei fraction (COLO829) [%],cleaved PARP positive nuclei fraction (G361) [%],cleaved PARP positive nuclei fraction (IPC-298) [%],cleaved PARP positive nuclei fraction (IST-MEL1) [%],cleaved PARP positive nuclei fraction (LB2518-MEL) [%],cleaved PARP positive nuclei fraction (LOXIMVI) [%],cleaved PARP positive nuclei fraction (A375) [%],cleaved PARP positive nuclei fraction (CBRC013) [%],cleaved PARP positive nuclei fraction (MEL-HO) [%]
"CN1CCN(c2ccc3nc(-c4c(N)c5c(F)cccc5[nH]c4=O)[nH]c3c2)CC1 [Dovitinib] + N#Cc1c(O)c2c(-c3ccc(-c4ccccc4O)cc3)csc2[nH]c1=O [A769662] (first compound 0.1 µM, partner dose 2 µM)",85.3,33.8,50.3,78.9,96.6,84.9,80.1,121,81.7,67.7,54.1,96.3,182,119,70.8,60,–,–,–
"Cc1cc(Nc2cc(N3CCN(C)CC3)nc(/C=C/c3ccccc3)n2)n[nH]1 + NCC(=O)Nc1ccc(-n2nc(C(F)(F)F)cc2-c2ccc3c(ccc4ccccc43)c2)cc1 [OSU03012] (first compound 0.04 µM, partner dose 1 µM)",–,79,67.1,89.6,106,253,219,96.3,144,102,146,87.8,302,152,–,197,1140,170,70.2
"CS(=O)(=O)CCNCc1ccc(-c2ccc3ncnc(Nc4ccc(OCc5cccc(F)c5)c(Cl)c4)c3c2)o1 [lapatinib] + COc1cc(Nc2ncc(F)c(Nc3ccc4c(n3)NC(=O)C(C)(C)O4)n2)cc(OC)c1OC [Tamatinib] (first compound 0.8 µM, partner dose 0.4 µM)",–,55.1,66.1,95,195,86.8,98.7,115,209,41.1,148,176,116,84,–,52.9,116,70.9,102
"C[C@@H](Oc1cc(-c2cnn(C3CCNCC3)c2)cnc1N)c1c(Cl)ccc(F)c1Cl [Crizotinib] + O=C(Nc1cccc(Cl)c1)Nc1ncc(CCNc2ncnc3ccsc23)s1 [SNS314] (first compound 0.2 µM, partner dose 0.0008 µM)",–,74.1,140,133,160,84.1,66.3,111,63.1,210,98.8,117,281,53.4,–,66.5,198,118,131
